The assay addresses SH.SZT2WT (STREP-HA tagged seizure threshold 2, wild type) (human). The experiment in a line: pull-down; eluates of the Strep-Tactin purification of SH.SZT2WT and SH.GFP (starved or stimulated cells) run on SDS-PAGE and immunoblotted for endogenous proteins. In general terms: In western blotting, separated proteins are transferred to a membrane and probed.

These are yes or no findings as the source states them, for the method shown. Binding seen in cells or lysates may run through a third protein. A result given as binding can be weak or reduced; the word gives no strength.

B1: KPTN (protein, UniProt Q9Y664 1-436)
chain: MMGEAAVAAGPCPLREDSFTRFSSQSNVYGLAGGAGGRGELLAATLKGKVLGFRYQDLRQKIRPVAKELQFNYIPVDAEIVSIDTFNKSPPKRGLVVGITFIKDSGDKGSPFLNIYCDYEPGSEYNLDSIAQSCLNLELQFTPFQLCHAEVQVGDQLETVFLLSGNDPAIHLYKENEGLHQFEEQPVENLFPELTNLTSSVLWLDVHNFPGTSRRLSALGCQSGYVRVAHVDQRSREVLQMWSVLQDGPISRVIVFSLSAAKETKDRPLQDEYSVLVASMLEPAVVYRDLLNRGLEDQLLLPGSDQFDSVLCSLVTDVDLDGRPEVLVATYGQELLCYKYRGPESGLPEAQHGFHLLWQRSFSSPLLAMAHVDLTGDGLQELAVVSLKGVHILQHSLIQASELVLTRLRHQVEQRRRRLQGLEDGAGAGPAENAAS
B1: the binding result was “binds”.

The record behind these values is PMC8534408.
